Test results from publication doi:10.1101/2022.08.19.504472.
No constants are given. Whether binding was seen depends on the method and setting. Some binding calls cover weakened binding; strength is not graded here. Values belong to the binder of their own block, whether it stands above or below them.

Biological target: T1, UBR box of Arabidopsis thaliana PRT6 (AtPRT6-UBR) (Arabidopsis thaliana) (UniProt F4KCC2)
T1 sequence: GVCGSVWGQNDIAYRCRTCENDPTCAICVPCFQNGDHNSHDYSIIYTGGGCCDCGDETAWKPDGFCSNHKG
Assay: crystal structure

- binding: binds
B1: RLGSGG N-degron sequence (RL-peptide of the AtPRT6 crystals) (peptide)
peptide: RLGSGG

- binding: binds
B2: RRGSGG N-degron sequence (RR-peptide) (peptide)
peptide: RRGSGG
